Taken from: PubChem BioAssay AID1259424 (University of Nebraska Medical Center, 2018)

Assay: 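Rank knockdowns across the genome by resemblance to the KSR1 depletion profile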 (primary screen)
System: human HCT116 colon cancer cells
Knock-down reagent: siRNA pool against human genes, 50 nM
Read-out: 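Six signature mRNAs by branched-DNA multiplex assay, scaled to two housekeeping genes and non-targeting median, log2; matched to mean KSR1 knockdown profile by Pearson correlation and euclidean distance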
Scale: mean correlation with KSR1 profile: higher = expression change more like KSR1 knockdown
This is one part, drawn at random, of about 14,000 reagents tested. 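Higher correlation or smaller distance means closer resemblance to KSR1 loss; control wells, including KSR1 knockdowns, recur on many plates.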 Reagents against one gene are numbered here. Not all columns of the deposit are shown. No sequences are given here. Not stated in the record: the time to read-out.

| gene | reagent | mean correlation with KSR1 profile |
| --- | --- | --- |
| USP47 | 1 | -0.813 |
| BMP15 | 1 | 0.47 |
| CTSH | 1 | 0.155 |
| OR2W1 | 1 | 0.937 |
| PRKCE | 1 | 0.484 |
| PRDM12 | 1 | 0.511 |
| TNNI2 | 1 | 0.739 |
| DEXI | 1 | -0.0737 |
| PSMB7 | 1 | -0.138 |
| HOXA9 | 1 | 0.465 |
| STMN2 | 1 | -0.00216 |
| DUSP7 | 1 | 0.208 |
| CD48 | 1 | 0.304 |
| DRC4 | 1 | -0.55 |
| DNAJC2 | 1 | -0.143 |
| OVCA2 | 1 | -0.249 |
| ATP2B1 | 1 | -0.26 |
| AGTRAP | 1 | 0.602 |
| ARTN | 1 | -0.292 |
| HAX1 | 1 | -0.227 |
| RMC1 | 1 | -0.318 |
| MTMR12 | 1 | -0.0324 |
| FAM120C | 1 | -0.141 |
| GOLGA4 | 1 | -0.197 |
| NPTX1 | 1 | -0.366 |
| WDR73 | 1 | 0.456 |
| MAP3K13 | 1 | -0.0877 |
| HDHD2 | 1 | -0.712 |
| RNF17 | 1 | -0.948 |
| RNF17 | 2 | -0.241 |
| SHISAL1 | 1 | -0.79 |
| VPREB1 | 1 | -0.235 |
| MZT2B | 1 | 0.38 |
| DMTN | 1 | 0.23 |
| SLC25A20 | 1 | -0.362 |
| ZFX | 1 | -0.0595 |
| TFE3 | 1 | 0.477 |
| KANSL3 | 1 | -0.764 |
| ADAM21 | 1 | -0.1 |
| TRANK1 | 1 | 0.16 |
| TTC39A | 1 | -0.298 |
| ANTKMT | 1 | -0.467 |
| ZSCAN26 | 1 | 0.426 |
| GOPC | 1 | 0.13 |
| PDZRN3 | 1 | -0.486 |
| CHTOP | 1 | -0.368 |
| USP15 | 1 | 0.156 |
| AVEN | 1 | -0.198 |
| FOXS1 | 1 | 0.473 |
| PPFIBP2 | 1 | 0.429 |
